Reference: US6673332
Results are given in words; binding and its absence hold for the method and conditions named. For some of these results: Binding seen in cells or lysates may run through a third protein. Some results given as binding are weak or reduced against the parent protein; the word gives no strength.

Sequences of proteins named here, by UniProt entry; tags and fusion partners are left off. A change or cut given only in a name is not applied to a line headed by its entry. A line that says so, or that is headed by a name, gives the form on record, which may keep a tag or linker. Residues count along the entry.
UniProt O88448: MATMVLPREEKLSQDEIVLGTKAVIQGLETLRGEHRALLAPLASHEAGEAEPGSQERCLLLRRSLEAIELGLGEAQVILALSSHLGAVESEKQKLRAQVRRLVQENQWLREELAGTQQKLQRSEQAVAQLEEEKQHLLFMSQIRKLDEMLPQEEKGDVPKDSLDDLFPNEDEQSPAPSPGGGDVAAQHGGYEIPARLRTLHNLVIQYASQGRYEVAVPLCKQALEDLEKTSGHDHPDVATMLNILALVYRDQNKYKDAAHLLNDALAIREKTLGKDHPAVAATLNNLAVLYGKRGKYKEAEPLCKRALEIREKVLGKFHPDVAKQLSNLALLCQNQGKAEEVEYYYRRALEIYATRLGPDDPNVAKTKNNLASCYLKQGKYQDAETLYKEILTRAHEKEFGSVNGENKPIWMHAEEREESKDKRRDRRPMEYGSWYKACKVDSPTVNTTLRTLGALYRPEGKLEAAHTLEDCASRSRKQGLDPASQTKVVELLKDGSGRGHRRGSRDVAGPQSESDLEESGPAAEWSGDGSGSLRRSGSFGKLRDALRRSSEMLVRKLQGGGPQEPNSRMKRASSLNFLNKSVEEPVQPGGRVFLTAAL
GST-KLC2 (glutathione S-transferase fused to kinesin light chain 2, 591 amino acids of the largest cDNA clone): residues 9-599 of O88448
UniProt O88447: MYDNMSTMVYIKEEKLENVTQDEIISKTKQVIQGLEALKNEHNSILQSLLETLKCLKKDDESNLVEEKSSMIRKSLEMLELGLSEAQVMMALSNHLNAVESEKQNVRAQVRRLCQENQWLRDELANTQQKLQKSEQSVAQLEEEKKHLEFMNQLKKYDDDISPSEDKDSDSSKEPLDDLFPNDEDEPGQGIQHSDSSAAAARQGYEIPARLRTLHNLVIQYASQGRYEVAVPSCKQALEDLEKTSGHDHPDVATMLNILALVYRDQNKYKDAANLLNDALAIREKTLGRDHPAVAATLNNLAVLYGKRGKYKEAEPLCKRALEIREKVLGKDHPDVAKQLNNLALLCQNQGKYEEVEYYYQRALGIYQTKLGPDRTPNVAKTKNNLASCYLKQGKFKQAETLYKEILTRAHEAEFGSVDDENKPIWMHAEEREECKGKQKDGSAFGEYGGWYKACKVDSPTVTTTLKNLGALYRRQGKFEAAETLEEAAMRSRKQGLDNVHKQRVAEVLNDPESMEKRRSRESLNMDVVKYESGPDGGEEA
GST-KLC1 (glutathione S-transferase fused to kinesin light chain 1, all but the first seven amino acids): residues 8-541 of O88447
GST-CC (GST fusion protein of the N-terminal coiled coil domain of KLC, amino acids 30-200): residues 30-200 of O88447
GST-TPR (GST fusion protein of the TPR domains of KLC1, amino acids 167-541): residues 167-541 of O88447
UniProt Q61768, residues 499-783: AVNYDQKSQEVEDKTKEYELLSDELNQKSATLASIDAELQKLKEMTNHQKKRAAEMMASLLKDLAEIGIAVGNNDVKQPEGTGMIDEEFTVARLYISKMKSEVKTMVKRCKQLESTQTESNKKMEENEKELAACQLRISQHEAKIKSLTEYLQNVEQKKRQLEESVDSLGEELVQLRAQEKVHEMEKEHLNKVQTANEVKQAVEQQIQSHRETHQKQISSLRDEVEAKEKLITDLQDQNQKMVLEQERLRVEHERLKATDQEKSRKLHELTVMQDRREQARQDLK
UniProt P12023, residues 18-770: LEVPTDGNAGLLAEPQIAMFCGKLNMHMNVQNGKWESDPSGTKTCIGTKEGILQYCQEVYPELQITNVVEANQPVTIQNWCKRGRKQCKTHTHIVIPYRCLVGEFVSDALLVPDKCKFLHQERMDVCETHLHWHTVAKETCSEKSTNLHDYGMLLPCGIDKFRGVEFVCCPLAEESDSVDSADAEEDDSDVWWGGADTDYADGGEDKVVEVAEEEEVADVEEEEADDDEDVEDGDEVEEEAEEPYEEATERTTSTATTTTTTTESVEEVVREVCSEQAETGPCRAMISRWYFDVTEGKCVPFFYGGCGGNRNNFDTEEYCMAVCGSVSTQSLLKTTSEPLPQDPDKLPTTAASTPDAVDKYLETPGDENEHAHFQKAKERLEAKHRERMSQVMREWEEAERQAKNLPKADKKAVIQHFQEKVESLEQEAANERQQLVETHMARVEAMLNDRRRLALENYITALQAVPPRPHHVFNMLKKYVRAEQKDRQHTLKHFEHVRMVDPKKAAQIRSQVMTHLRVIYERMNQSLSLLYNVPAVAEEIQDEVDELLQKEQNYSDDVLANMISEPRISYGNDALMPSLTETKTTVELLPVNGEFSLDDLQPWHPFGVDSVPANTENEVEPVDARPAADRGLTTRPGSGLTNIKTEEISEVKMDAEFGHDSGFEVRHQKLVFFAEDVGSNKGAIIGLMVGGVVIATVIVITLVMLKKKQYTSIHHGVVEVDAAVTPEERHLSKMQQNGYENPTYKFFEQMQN

Legend:
[1] = target: GST-KLC2 (glutathione S-transferase fused to kinesin light chain 2, 591 amino acids of the largest cDNA clone) (UniProt O88448); assay: GST pull-down of purified proteins, Western blot for the His tag
[2] = target: GST-KLC1 (glutathione S-transferase fused to kinesin light chain 1, all but the first seven amino acids) (UniProt O88447); assay: as above
[3] = target: GST-CC (GST fusion protein of the N-terminal coiled coil domain of KLC, amino acids 30-200) (UniProt O88447); assay: GST pull-down, Western blot for the His tag
[4] = target: GST-KLC2 (glutathione S-transferase fused to kinesin light chain 2, 591 amino acids of the largest cDNA clone) (UniProt O88448); assay: GST pull-down of purified proteins, Western blot for GFP
[5] = target: GST-KLC1 (glutathione S-transferase fused to kinesin light chain 1, all but the first seven amino acids) (UniProt O88447); assay: GST pull-down of purified proteins, Western blot for GFP; also found under five buffer conditions including high salt
[6] = target: GST-TPR (GST fusion protein of the TPR domains of KLC1, amino acids 167-541) (UniProt O88447); assay: GST pull-down, Western blot for GFP
[7] = target: GST-TPR (GST fusion protein of the TPR domains of KLC1, amino acids 167-541) (UniProt O88447); assay: GST pull-down, Western blot (FIG. 5, Panel E)
[8] = target: GST-KLC2 (glutathione S-transferase fused to kinesin light chain 2, 591 amino acids of the largest cDNA clone) (UniProt O88448); assay: GST pull-down, Western blot (FIG. 5, Panel A)
[9] = target: GST-KLC1 (glutathione S-transferase fused to kinesin light chain 1, all but the first seven amino acids) (UniProt O88447); assay: GST pull-down, Western blot (FIG. 5, Panel A)
[10] = target: KLC2 (kinesin light chain 2), endogenous, mouse brain (mouse) (UniProt O88448); assay: sucrose gradient sedimentation and co-immunoprecipitation with 63-90 from fraction 11 of KLC1 mutant gradients
[11] = target: KLC1 (kinesin light chain 1), endogenous, mouse brain (mouse) (UniProt O88447); assay: co-immunoprecipitation with KHC antibodies from wild-type and KLC1 mutant mouse brain extracts
[12] = target: KLC2 (kinesin light chain 2), endogenous, mouse brain (mouse) (UniProt O88448); assay: as above
[13] = target: KLC2 (kinesin light chain 2), endogenous, mouse brain (mouse) (UniProt O88448); assay: co-immunoprecipitation from wild-type and KLC1 mutant mouse brain extracts with a KLC2-specific antibody, Western blot
[14] = target: KLC1 (kinesin light chain 1), endogenous, mouse brain (mouse) (UniProt O88447); assay: 5-20% sucrose gradient velocity sedimentation of mouse brain membrane proteins, quantitative Western blot (FIG. 2)
[15] = target: KLC1 (kinesin light chain 1), endogenous, mouse brain (mouse) (UniProt O88447); assay: co-immunoprecipitation from sucrose gradient fractions (data not shown); not possible from fraction 8 of KLC1 mutant gradients
[16] = target: KLC1 (kinesin light chain 1), endogenous, mouse brain (mouse) (UniProt O88447); assay: co-immunoprecipitation from wild-type and KLC1 mutant mouse brain extracts with a KLC1-specific antibody, Western blot

Measured: binding

KIF5B-His fusion protein (amino acids 499-783 of KIF5B, His-tagged, pET-23b) (from UniProt Q61768 499-783)
binds: [1] | [2] | [3]

APP-GFP fusion protein (C-terminal 42 amino acids of human APP fused to GFP, from a His-tagged pRSETb-EGFP vector) (from UniProt P05067 729-770; P42212 1-238)
binds: [4] | [5] | [6] | [7] | [8] | [9]

APP (amyloid precursor protein), endogenous, from mouse brain and sciatic nerve extracts (from UniProt P12023 18-770)
binds: [10] | [11] | [12] | [13] | [14] | [15] | [16]
